In the supplement of paper PMC8104966:
Several values for one entry are separate records, joined by “and”; a condition that tells them apart may be missing. Identical values can stand only once. The list shows a part of the results. Repeats in this data set agree poorly, so a single value says little.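 U2OS cells carrying ACE2 were mixed with U2OS cells carrying full-length spike, and fusion was scored by imaging as the share of nuclei showing both cell types' fluorescent markers. A compound counts as an inhibitory hit when it is non-toxic and its fusion z-score falls below -3, meaning more than three standard deviations below the plate's DMSO wells.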

test system: U2OS ACE2 x SARS-CoV-2 spike co-culture; assay: cell-cell fusion (fraction fused) z-score vs plate DMSO control; higher = more fusion; conditions: 30 µM; 5 h; toxicity class: non-toxic, passed QC

Structure (SMILES)	cell-cell fusion (z-score)
Cc1ncc([N+](=O)[O-])n1CC(C)O (stereo not given)	inactive: 0.48
CC(=O)NS(=O)(=O)c1ccc(N)cc1	inactive: 1.92
CC(=O)Nc1cccc(-n2c(=O)n(C3CC3)c(=O)c3c(Nc4ccc(I)cc4F)n(C)c(=O)c(C)c32)c1	inactive: 1.17 and inactive: 1.24
Cc1ccccc1C(OCCN(C)C)c1ccccc1.O=C(O)CC(O)(CC(=O)O)C(=O)O (stereo not given) [Orphenadrine Citrate]	inactive: 3.6
O=C1NC(=O)c2c1c(-c1ccccc1)cc1[nH]c3ccc(O)cc3c21	active: -5.27
COc1ccccc1N1CCN(CCN(C(=O)c2ccc(F)cc2)c2ccccn2)CC1.Cl.Cl [p-MPPF dihydrochloride]	inactive: 2.4
CCC(C)n1ncn(-c2ccc(N3CCN(c4ccc(OC[C@H]5CO[C@](Cn6cncn6)(c6ccc(Cl)cc6Cl)O5)cc4)CC3)cc2)c1=O (stereo not given in full) [Itraconazole (Sporanox)]	inactive: 1.34
N[C@H](CO)C(=O)O [D-Serine]	inactive: 2.02
CCC(CO)Nc1nc(NCc2ccccc2)c2ncn(C(C)C)c2n1 (stereo not given) [Roscovitine]	inactive: 2.55
O=c1cc(-c2ccccc2)oc2cc(O)cc(O)c12	inactive: 2.15
CC(C)(Sc1ccc(CCN(CCCCC2CCCCC2)C(=O)NC2CCCCC2)cc1)C(=O)O	inactive: 3.29
CN(CCOc1ccc(CC2SC(=O)NC2=O)cc1)c1ccccn1.O=C(O)/C=C\C(=O)O (stereo not given) [Rosiglitazone maleate]	inactive: 2.52
CCN1CCN(Cc2ccc(Nc3ncc(F)c(-c4cc(F)c5nc(C)n(C(C)C)c5c4)n3)nc2)CC1 [Abemaciclib]	inactive: 1.05
O=C(CCCCCCC(=O)Nc1ccccc1)NO [Vorinostat]	inactive: 3.45
CSc1nc(N)c2ncn([C@@H]3O[C@H](COP(=O)([O-])OP(=O)([O-])OP(=O)([O-])[O-])[C@H](O)C3O)c2n1.[Na+].[Na+].[Na+].[Na+] (stereo not given in full) [2-Methylthioadenosine triphosphate tetrasodium]	inactive: 1.24
CC(C)(C)NCC(O)COc1cccc2c1CCCC2=O.Cl (stereo not given)	inactive: 1.06
CC[N+]1(C)CCCC(OC(=O)C(O)(c2ccccc2)c2ccccc2)C1.[Br-] (stereo not given)	inactive: 3.12
NS(=O)(=O)c1cc2c(cc1Cl)N=CNS2(=O)=O [Chlorothiazide]	inactive: 1.41
NS(=O)(=O)c1cc2c(cc1Cl)N=CNS2(=O)=O	inactive: 1.04
C1CNCCN1.COc1cc(C(O)CO)ccc1O.COc1cc(C(O)CO)ccc1O (stereo not given) [MHPG piperazine]	inactive: 1.68
CN(C)C(=O)Oc1ccc[n+](C)c1.[Br-] [Pyridostigmine bromide]	inactive: 1.15
COC(=O)c1c(C)cc(OC(=O)c2c(C)cc(O)c(C=O)c2O)c(C)c1O	inactive: 2.51
C[n+]1ccccc1C=NO.[Cl-]	inactive: 1.82

Structure (SMILES)	cell-cell fusion (z-score)
CCCCC[C@H](O)CC[C@@H]1[C@H]2Cc3cccc(OCC(=O)[O-])c3C[C@H]2C[C@H]1O.[Na+] [Treprostinil Sodium]	inactive: 1.42
CC[C@H](C)C(=O)O[C@H]1C[C@@H](C)C=C2C=C[C@H](C)[C@H](CC[C@@H]3C[C@@H](O)CC(=O)O3)[C@H]21 [Lovastatin]	inactive: -1.33
O=C(NOCC1CC1)c1cc(Br)c(F)c(F)c1Nc1ccc(I)cc1Cl	inactive: 2.1
CC(=O)/C(=C\c1ccccc1)CC(=O)O	inactive: 2.4
NC(Cc1c[nH]c2ccccc12)C(=O)O (stereo not given)	inactive: 1.75
CCCCCN(CCCOC)C(=O)C(CCC(=O)O)NC(=O)c1ccc(Cl)c(Cl)c1 (stereo not given) [Loxiglumide]	inactive: 2.96
COc1cc2c(cc1OC)[C@@H]1C(=O)c3ccc4c(c3O[C@@H]1CO2)C=CC(C)(C)O4	inactive: 2.73
CC1(CN2CCC(n3c(=O)[nH]c4ccccc43)CC2)OCc2ccccc2-n2cccc21.O=C(O)/C=C\C(=O)O (stereo not given)	inactive: -1.35
O=c1cc[nH]c(=O)[nH]1	inactive: 0.509
N=C(N)Nc1ccc2[nH]c3c(c2c1)C[C@@]1(O)[C@H]2Cc4ccc(O)c5c4[C@@]1(CCN2CC1CC1)[C@H]3O5.O=C(O)C(F)(F)F.O=C(O)C(F)(F)F [Guanidinyl-naltrindole di-trifluoroacetate]	inactive: 0.269
CC(=O)O.N=C(N)NCCC[C@@H](NC(=O)[C@@H](N)Cc1ccc(O)cc1)C(=O)O	inactive: 2.35
Cl.NC12CC3CC(CC(C3)C1)C2	inactive: 1.93
Cl.NC12CC3CC(CC(C3)C1)C2 [Amantadine hydrochloride]	inactive: 2.17
NC1(C(=O)O)CCCC1	inactive: 3.59
CN1CCN(c2c(F)cc3c(=O)c(C(=O)O)cn4c3c2SCC4)CC1	inactive: 3.12
CCNC1(c2cccs2)CCCCC1=O.Cl (stereo not given)	inactive: 2.07
Clc1ccc(CO/N=C(\Cn2ccnc2)c2ccc(Cl)cc2Cl)c(Cl)c1.O=[N+]([O-])O	inactive: 1.09
C[C@H]1O[C@H](O[C@H]2[C@H](O)[C@@H](O)[C@@H](O)[C@H](O)[C@@H]2O)[C@@H](N)C[C@@H]1NC(=N)C(=O)O.Cl	inactive: 1.62
CN1C(=O)OC(C)(C)C1=O	inactive: 1.43
CCC(=O)OCC(=O)[C@@]1(OC(=O)CC)[C@@H](C)C[C@H]2[C@@H]3CCC4=CC(=O)C=C[C@]4(C)[C@@]3(F)[C@@H](O)C[C@@]21C [Betamethasone dipropionate]	inactive: 3.33
CC[C@@]1(O)C(=O)OCc2c1cc1n(c2=O)Cc2cc3c(CN(C)C)c(O)ccc3nc2-1.Cl [Topotecan HCl]	inactive: 1.57
Cl.O=S(=O)(c1cccc2c(I)cccc12)N1CCCNCC1	inactive: -0.446
